Experimental data reported in PubChem BioAssay AID248 (DTP/NCI, 2004).
The list does not hold the whole screen: it is rich in T/C values a quarter to a half above the control, in often repeated tests (any T/C) and in doses without a T/C. Other doses and runs of a compound stand elsewhere. T/C: endpoint of the treated group in % of that of the vehicle group. Some entries give survivors of the animals treated and no T/C: the source holds a T/C of zero for them, seemingly a mark for toxic or unscored doses. Some survivor counts are full or nearly so, which does not show that the dose was tolerated: the source hardly ever lists a survival T/C far under the control, and the zero likely stands for such cases as well. Survivors were counted at the toxicity check, usually on the fifth day, unless a day is given; later deaths do not show. Schedules are NCI's codes, taken here to give the interval after Q, in days (D) or hours (H), and the number of doses after X. Where survival is the endpoint, the PubChem record calls one and a half times the control and up active, and a quarter to a half above the control has no call in these data; cut-offs in other NCI protocols can differ. Some entries hold several experiments; the results are listed from low to high. Some T/C values are followed by the survivors on the day toxicity was checked, most often the fifth; without a count, all were alive then.

Tested on: L1210 leukemia ip in BDF1 mice, survival T/C
Experiment: NCI In Vivo Anticancer Drug Screen. Data for tumor model L1210 Leukemia (intraperitoneal) in B6D2F1 (BDF1) mice
Details: T/C endpoint: mean survival time, higher T/C = longer survival
[1] = dose: 25.0 mg/kg/injection, schedule: Q01DX009 (ip), vehicle: saline
[2] = dose: 100.0 mg/kg/injection, schedule: Q04DX003 (ip), vehicle: saline
[3] = dose: 200.0 mg/kg/injection, schedule: Q04DX003 (ip), vehicle: saline
[4] = dose: 400.0 mg/kg/injection, schedule: Q04DX003 (ip), vehicle: saline
[5] = dose: 400.0 mg/kg/injection, schedule: Q01DX001 (ip), vehicle: saline
[6] = dose: 300.0 mg/kg/injection, schedule: Q01DX001 (ip), vehicle: saline
[7] = dose: 300.0 mg/kg/injection, schedule: Q01DX001 (ip), vehicle: carboxymethylcellulose (CMC)
[8] = dose: 100.0 mg/kg/injection, schedule: Q01DX009 (ip), vehicle: saline with Tween-80
[9] = dose: 200.0 mg/kg/injection, schedule: Q01DX009 (ip), vehicle: saline with Tween-80
[10] = dose: 400.0 mg/kg/injection, schedule: Q01DX009 (ip), vehicle: saline with Tween-80
[11] = dose: 100.0 mg/kg/injection, schedule: Q01DX009 (ip), vehicle: saline
[12] = dose: 400.0 mg/kg/injection, schedule: Q01DX009 (ip), vehicle: saline
[13] = dose: 400.0 mg/kg/injection, schedule: Q01DX001 (ip), vehicle: other
[14] = dose: 400.0 mg/kg/injection, schedule: Q01DX009 (ip), vehicle: Klucel (hydroxypropylcellulose) (HPC)
[15] = dose: 200.0 mg/kg/injection, schedule: Q04DX002 (ip), vehicle: Klucel (hydroxypropylcellulose) (HPC)
[16] = dose: 400.0 mg/kg/injection, schedule: Q04DX002 (ip), vehicle: Klucel (hydroxypropylcellulose) (HPC)
[17] = dose: 400.0 mg/kg/injection, schedule: Q04DX003 (ip), vehicle: saline with Tween-80

O=NNc1ccccn1 was tested, and the T/C (dose: 12.5 mg/kg/injection, schedule: Q01DX009 (ip), vehicle: saline) was 137 % of control, the T/C (dose: 12.5 mg/kg/injection, schedule: Q04DX003 (ip), vehicle: saline) was 131 and 136 % of control and the T/C (dose: 18.0 mg/kg/injection, schedule: Q04DX003 (ip), vehicle: saline) was 134 % of control. For the same molecule, the T/C (dose: 18.75 mg/kg/injection, schedule: Q04DX003 (ip), vehicle: saline) was 134 % of control, the survivor count [1] was 6 of 6 and the T/C (dose: 25.0 mg/kg/injection, schedule: Q04DX003 (ip), vehicle: saline) was 131 % of control. For the same molecule, the survivor count (dose: 50.0 mg/kg/injection, schedule: Q01DX009 (ip), vehicle: saline) was 4 of 6, the survivor count [2] was 5 of 6 and the survivor count [3] was 2 of 4. For the same molecule, the survivor count [4] was 0 of 6.

For COc1cc(C=Nc2cccc(Br)c2)ccc1N(CCCl)CCCl, the T/C (dose: 5.0 mg/kg/injection, schedule: Q01DX015 (ip), vehicle: carboxymethylcellulose (CMC)) was 145 % of control, the T/C (dose: 9.0 mg/kg/injection, schedule: Q01DX015 (ip), vehicle: carboxymethylcellulose (CMC)) was 130 % of control and the T/C (dose: 15.0 mg/kg/injection, schedule: Q01DX015 (ip), vehicle: carboxymethylcellulose (CMC)) was 147 % of control. For the same molecule, the T/C [1] was 131 % of control, the T/C (dose: 25.0 mg/kg/injection, schedule: Q01DX015 (ip), vehicle: carboxymethylcellulose (CMC)) was 136 % of control and the survivor count (dose: 35.0 mg/kg/injection, schedule: Q01DX015 (ip), vehicle: carboxymethylcellulose (CMC)) was 6 of 6. The T/C (dose: 50.0 mg/kg/injection, schedule: Q01DX001 (ip), vehicle: carboxymethylcellulose (CMC)) was 127 % of control, the survivor count (dose: 55.0 mg/kg/injection, schedule: Q01DX015 (ip), vehicle: carboxymethylcellulose (CMC)) was 1 of 6 and the T/C (dose: 75.0 mg/kg/injection, schedule: Q01DX001 (ip), vehicle: carboxymethylcellulose (CMC)) was 130 % of control [3 of 4 alive]. For the same molecule, the survivor count (dose: 80.0 mg/kg/injection, schedule: Q01DX015 (ip), vehicle: carboxymethylcellulose (CMC)) was 0 of 6, the survivor count [2] was 5 of 6 and the survivor count [3] was 0 of 6. The survivor count [4] was 0 of 6.

CSc1nc(NN(C)C)c2[nH]c(C)nc2n1 was tested, and the survivor count [5] was 3 of 6.

In the case of CCCC1CCCC(=O)N1 (stereo not drawn), the survivor count [6] is reported as 0 of 6.

In the case of COc1cc(SSc2ccc(N)c(OC)c2)ccc1N, the survivor count [7] is reported as 1 of 6.

For C/C=C(\C)c1cc(=O)c2c(C)cc3c(c2o1)C(=O)c1c(O)c(C2CC(C)(N(C)C)C(O)C(C)O2)cc(C2CC(N(C)C)C(O)C(C)O2)c1C3=O (stereo not drawn), the survivor count (dose: 400.0 mg/kg/injection, schedule: Q01DX001 (ip), vehicle: saline with Tween-80) was 0 of 6.

With O=NCC1(Cl)CC2C=CC1C2 (stereo not drawn) the survivor count [8] was 1 of 6, the survivor count [9] was 0 of 6 and the survivor count [10] was 0 of 6.

CCCCCCCCCCCC[N+](C)(C)C was tested, and the survivor count (dose: 40.0 mg/kg/injection, schedule: Q01DX009 (ip), vehicle: saline) was 0 of 6, the survivor count [11] was 0 of 6 and the survivor count (dose: 200.0 mg/kg/injection, schedule: Q01DX009 (ip), vehicle: saline) was 0 of 6. The survivor count [12] was 0 of 6.

For O=C(Nc1cccc(Cl)c1)c1cc([N+](=O)[O-])ccc1O, the survivor count (dose: 100.0 mg/kg/injection, schedule: Q01DX001 (ip), vehicle: other) was 1 of 4, the survivor count (dose: 160.0 mg/kg/injection, schedule: Q02DX010 (ip), vehicle: carboxymethylcellulose (CMC)) was 6 of 6 and the survivor count (dose: 200.0 mg/kg/injection, schedule: Q01DX001 (ip), vehicle: other) was 0 of 4. The survivor count [13] was 0 of 4.

In the case of CCOC(=O)c1ccc(NC(=O)Nc2ccc(F)cc2)cc1, the survivor count [14] is reported as 1 of 6.

CC(C)(C)c1cc([N+](=O)[O-])cc(C(C)(C)C)c1O was tested, and the survivor count [9] was 6 of 6 and the survivor count [4] was 1 of 6.

For Cn1c(=O)c2ncn(CC3CCCCC3)c2n(C)c1=O, the survivor count (dose: 400.0 mg/kg/injection, schedule: Q01DX001 (ip), vehicle: carboxymethylcellulose (CMC)) was 4 of 4.

O=S(=O)(c1ccccc1)C(I)I was tested, and the survivor count (dose: 100.0 mg/kg/injection, schedule: Q04DX002 (ip), vehicle: Klucel (hydroxypropylcellulose) (HPC)) was 1 of 3, the survivor count [15] was 0 of 3 and the survivor count [16] was 0 of 3.

CCOC(=O)CCCS was tested, and the survivor count [7] was 0 of 6.

For CC(O)c1ccc[n+](CCc2cn(C)c3ccccc23)c1 (stereo not drawn), the survivor count (dose: 100.0 mg/kg/injection, schedule: Q04DX003 (ip), vehicle: saline with Tween-80) was 1 of 6, the survivor count (dose: 200.0 mg/kg/injection, schedule: Q04DX003 (ip), vehicle: saline with Tween-80) was 0 of 6 and the survivor count [17] was 0 of 6.

With O=P(O)(O)c1cccc(Oc2ccccc2)c1 the survivor count [6] was 0 of 6.

For Cc1ccc(N=NN(C)CC#N)cc1, the survivor count (dose: 200.0 mg/kg/injection, schedule: Q04DX003 (ip), vehicle: other) was 2 of 6 and the survivor count (dose: 400.0 mg/kg/injection, schedule: Q04DX003 (ip), vehicle: other) was 0 of 6.

With COc1ccccc1/C=N\NC(=O)CCCC(=O)N/N=C/c1ccccc1OC the survivor count (dose: 100.0 mg/kg/injection, schedule: Q01DX001 (ip), vehicle: saline) was 4 of 4.

CC1=CC(=O)C(C(C)C)CC1=O (stereo not drawn) was tested, and the survivor count [8] was 1 of 6, the survivor count [9] was 3 of 6 and the survivor count [10] was 0 of 6.

For CC[CH2][Sn]([CH2]CC)([CH2]CC)[O][Sn]([CH2]CC)([CH2]CC)[CH2]CC, the survivor count (dose: 4.0 mg/kg/injection, schedule: Q04DX003 (ip), vehicle: saline with Tween-80) was 6 of 6.

With O=c1cccc[nH]1 the T/C [11] was 125 % of control, the survivor count [12] was 2 of 6 and the survivor count (dose: 400.0 mg/kg/injection, schedule: Q04DX002 (ip), vehicle: saline) was 0 of 3.

With c1ccc(-c2oc3ccc4ccccc4c3c2-c2ccc(OCCN3CCCC3)cc2)cc1 the survivor count (dose: 160.0 mg/kg/injection, schedule: Q01DX009 (ip), vehicle: Klucel (hydroxypropylcellulose) (HPC)) was 5 of 6.

C[N+](C)(C)c1cc2c(nn1)Nc1ccccc1S2 was tested, and the survivor count (dose: 200.0 mg/kg/injection, schedule: Q01DX001 (ip), vehicle: saline) was 2 of 4 and the survivor count [5] was 1 of 4.

For N#CC1CN(c2ccccc2)CC1=O (stereo not drawn), the survivor count [14] was 3 of 6.

For CCCCN(CCCC)C(=O)CCC, the survivor count [4] was 3 of 6.

For Cc1ccc(NS(=O)(=O)c2ccc(Br)cc2)c(C)c1, the survivor count [8] was 6 of 6.

O=C1CCCCC1Cc1ccccc1 (stereo not drawn) was tested, and the survivor count (dose: 400.0 mg/kg/injection, schedule: Q04DX003 (ip), vehicle: acetone) was 5 of 6.

In the case of NC(=O)c1cc(C(N)=O)cc([N+](=O)[O-])c1, the survivor count [9] is reported as 3 of 6 and the survivor count [17] is reported as 0 of 6.

NNC(=O)CCc1ccccc1Br was tested, and the survivor count [17] was 4 of 6.

With ClCc1nc2ccc(Cl)cc2[nH]1 the survivor count [13] was 2 of 4.

With CN(C)CCOC(=O)c1ccc(CCl)cc1 the survivor count (dose: 350.0 mg/kg/injection, schedule: Q01DX009 (ip), vehicle: saline) was 4 of 6.

With CCNC(=S)NNC(=S)NNc1ccccc1 the survivor count (dose: 100.0 mg/kg/injection, schedule: Q04DX002 (ip), vehicle: other) was 0 of 3, the survivor count (dose: 200.0 mg/kg/injection, schedule: Q04DX002 (ip), vehicle: other) was 0 of 3 and the survivor count (dose: 400.0 mg/kg/injection, schedule: Q04DX002 (ip), vehicle: other) was 0 of 3.

For COC1C(=O)CCC2(CO2)C1(O)C1(C)OC1CC=C(C)C (stereo not drawn), the survivor count [4] was 6 of 6.

Cc1ccc(C(=O)n2c(Cl)c(/C=N/NC(N)=S)c3ccccc32)cc1 was tested, and the survivor count [15] was 1 of 3.

For O=C(O)c1cc(Br)cc(I)c1Cl, the survivor count [16] was 1 of 3.
